From article PMC5309844
No constants are given. Whether binding was seen depends on the method and setting. Binding seen in cells or lysates may run through a third protein. Some results given as binding are weak or reduced against the parent protein; the word gives no strength.

The chains behind the UniProt entries cited, without tags or fusion partners. Residues count along the entry.
UniProt P08482: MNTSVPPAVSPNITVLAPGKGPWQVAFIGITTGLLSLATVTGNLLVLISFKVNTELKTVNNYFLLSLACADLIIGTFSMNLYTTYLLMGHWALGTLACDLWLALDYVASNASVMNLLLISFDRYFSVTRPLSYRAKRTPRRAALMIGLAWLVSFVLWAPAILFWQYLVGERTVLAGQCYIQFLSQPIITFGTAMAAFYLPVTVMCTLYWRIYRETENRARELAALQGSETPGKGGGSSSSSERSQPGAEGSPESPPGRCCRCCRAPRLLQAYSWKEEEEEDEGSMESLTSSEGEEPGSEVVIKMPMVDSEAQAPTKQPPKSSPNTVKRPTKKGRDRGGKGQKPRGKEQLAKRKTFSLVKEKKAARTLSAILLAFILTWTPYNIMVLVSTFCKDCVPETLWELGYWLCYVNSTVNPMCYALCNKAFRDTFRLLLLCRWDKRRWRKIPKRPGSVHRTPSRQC
UniProt P04785, residues 20-509: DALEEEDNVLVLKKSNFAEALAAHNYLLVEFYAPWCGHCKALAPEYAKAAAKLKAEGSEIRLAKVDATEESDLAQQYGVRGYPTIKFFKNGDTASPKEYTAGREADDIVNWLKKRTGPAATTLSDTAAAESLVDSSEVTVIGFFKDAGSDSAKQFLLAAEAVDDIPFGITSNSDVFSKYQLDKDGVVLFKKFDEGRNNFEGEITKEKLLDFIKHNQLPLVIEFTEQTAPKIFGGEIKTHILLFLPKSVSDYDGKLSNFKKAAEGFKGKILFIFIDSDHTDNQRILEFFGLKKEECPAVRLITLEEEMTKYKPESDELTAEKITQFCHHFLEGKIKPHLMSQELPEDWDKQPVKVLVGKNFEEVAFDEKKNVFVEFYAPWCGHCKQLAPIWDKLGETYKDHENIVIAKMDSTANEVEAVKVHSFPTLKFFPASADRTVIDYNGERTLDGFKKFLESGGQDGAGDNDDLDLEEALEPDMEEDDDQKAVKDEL

Key:
Assay in all cases: co-IP; rat hippocampal tissue lysed in RIPA buffer; equal amounts of total protein precipitated with the appropriate primary antibodies and protein G sepharose at 4 °C overnight; Western blot; normal, chronic epileptic, and control siRNA- or PDI siRNA-infused epileptic animals
[1] = target: muscarinic acetylcholine 1 receptor (rat (endogenous in hippocampus)) (UniProt P08482)
[2] = target: NMDA receptor NR2A subunit (rat (endogenous in hippocampus)) (UniProt Q00959)
[3] = target: NMDA receptor NR1 subunit (rat (endogenous in hippocampus)) (UniProt P35439)

## Protein disulfide isomerase (from UniProt P04785 20-509) (enzyme)
[1]
  binding: binds weakly
[2]
  binding: binds
[3]
  binding: binds
